The supplement of paper PMC9744312
Structures can show the parent of a compound that is named as a salt. Some of the results follow. Single values of this set are uncertain.

test system: Peyronie's disease tunica albuginea primary fibroblasts; assay: inhibition of TGF-beta1-induced alpha-SMA expression (myofibroblast transformation), relative to TGF-beta1-only and untreated controls; higher = stronger inhibition of myofibroblast transformation; details: 10 µM; TGF-beta1 10 ng/mL; 72 h

Row | SMILES | inhibition of TGF-beta1-induced alpha-SMA expression [%]
1 | C[C@H](Oc1cc(-c2cnn(C3CCNCC3)c2)cnc1N)c1c(Cl)ccc(F)c1Cl [(S)-crizotinib] | > 100
2 | Brc1c(NC2=NCCN2)ccc2nccnc12 [Brimonidine Tartrate] | -15.5
3 | CN(C)CCOC(=O)COc1ccc(Cl)cc1 [Meclofenoxate (Centrophenoxine) HCl] | 5.8
4 | O=C(OCc1ccccc1)c1ccccc1 [Benzyl benzoate] | -0.889
5 | CCCc1nc(C(C)(C)O)c(C(=O)O)n1Cc1ccc(-c2ccccc2-c2nnn[nH]2)cc1 [Olmesartan] | 17.2
6 | N=C(N)N/N=C/c1c(Cl)cccc1Cl [Guanabenz Acetate] | 41.8
7 | Cc1ccc2c(Cl)cc(Cl)c(O)c2n1 [Chlorquinaldol] | -54.6
8 | OC(CCN1CCCCC1)(c1ccccc1)C1CCCCC1 (stereo not given) [Trihexyphenidyl hydrochloride] | 19.6
9 | CN(CCOc1ccc(CC2SC(=O)NC2=O)cc1)c1ccccn1 (stereo not given) [Rosiglitazone] | 7.83
10 | CN(CCOc1ccc(CC2SC(=O)NC2=O)cc1)c1ccccn1 (stereo not given) [Rosiglitazone HCl] | -31.8
11 | CN(CCOc1ccc(CC2SC(=O)NC2=O)cc1)c1ccccn1 (stereo not given) [Rosiglitazone maleate] | 39.5
12 | C=C[C@@H]1C[C@]1(NC(=O)[C@@H]1C[C@@H](Oc2ncc(OC)c3ccc(Cl)cc23)CN1C(=O)[C@@H](NC(=O)OC(C)(C)C)C(C)(C)C)C(=O)NS(=O)(=O)C1CC1 [Asunaprevir] | 1.94
13 | COc1ccc(C[C@@H]2c3cc(OC)c(OC)cc3CC[N@+]2(C)CCC(=O)OCCCCCOC(=O)CC[N@@+]2(C)CCc3cc(OC)c(OC)cc3[C@H]2Cc2ccc(OC)c(OC)c2)cc1OC [Cisatracurium Besylate] | 18.9
14 | CCOC(=O)c1c(C)n(C)c2ccc(O)cc12 [Mecarbinate] | 34.1
15 | N#Cc1ccc(Oc2ccc3c(c2)COB3O)cc1 [Crisaborole (AN2728)] | 32.7
16 | CC(N)C12CC3CC(CC(C3)C1)C2 (stereo not given) [Rimantadine Hydrochloride] | 16
17 | CC(N)C12CC3CC(CC(C3)C1)C2 (stereo not given) [Rimantadine] | 12.8
18 | O=C(NS(=O)(=O)c1ccc(Br)s1)c1ccc(Cl)cc1Cl [Tasisulam] | 2.01
19 | OCCOCCN1CCN(C(c2ccccc2)c2ccc(Cl)cc2)CC1 (stereo not given) [Hydroxyzine pamoate] | 86.7
20 | OCCOCCN1CCN(C(c2ccccc2)c2ccc(Cl)cc2)CC1 (stereo not given) [Hydroxyzine 2HCl] | 59.6
21 | C=CC1=C(C(=O)O)N2C(=O)[C@@H](NC(=O)/C(=N\OCC(=O)O)c3csc(N)n3)[C@H]2SC1 [Cefixime] | -40.6
22 | Cc1cc(-n2c(=O)[nH]c(=O)n(C)c2=O)ccc1Oc1ccc(SC(F)(F)F)cc1 [Toltrazuril] | -3.27
23 | Cc1ccccc1N1C(=O)c2cc(S(N)(=O)=O)c(Cl)cc2NC1C (stereo not given) [Metolazone] | -2.08

Row | SMILES | inhibition of TGF-beta1-induced alpha-SMA expression [%]
24 | [I-].[K+] [Potassium Iodide] | -2.66
25 | COc1ccc2[nH]c([S+]([O-])Cc3ncc(C)c(OC)c3C)nc2c1 (stereo not given) [Omeprazole] | 14
26 | O=C1/C(=C2\Nc3ccccc3C2=O)Nc2ccccc21 [Indigo] | 28.6
27 | Nc1cccc2c1CN(C1CCC(=O)NC1=O)C2=O (stereo not given) [Lenalidomide (CC-5013)] | -0.869
28 | O=S(=O)(O)CCCS(=O)(=O)O [Eprodisate disodium] | 7.9
29 | CCOC(=O)[C@H](CCc1ccccc1)N[C@@H](C)C(=O)N1CCC[C@H]1C(=O)O [Enalapril Maleate] | 7.21
30 | CNC(=O)[C@H](Cc1ccccc1)NC(=O)[C@H](CC(C)C)[C@H](CSc1cccs1)C(=O)NO [Batimastat (BB-94)] | 26.3
31 | Cn1nnnc1SCC1=C(C(=O)O)N2C(=O)[C@@H](NC(=O)[C@H](OC=O)c3ccccc3)[C@H]2SC1 [Cefamandole nafate] | 14.3
32 | C[C@H](NC(=O)[C@@H](Cc1ccc2ccccc2c1)NC(=O)[C@@H](C)N)C(=O)N[C@@H](Cc1c[nH]c2ccccc12)C(=O)N[C@H](Cc1ccccc1)C(=O)N[C@@H](CCCCN)C(N)=O | 8.35
33 | C=CC(=O)N1CCC[C@@H](n2nc(-c3ccc(Oc4ccccc4)cc3)c3c(N)ncnc32)C1 | -34.2
34 | COc1cc2c(cc1OC)[C@H]1C[C@@H](OC(=O)[C@@H](N)C(C)C)[C@H](CC(C)C)CN1CC2 [Valbenazine tosylate] | 25
35 | CC1=C(CC(=O)O)c2cc(F)ccc2/C1=C\c1ccc([S+](C)[O-])cc1 (stereo not given) [Sulindac] | 14.3
36 | C[C@]12CC[C@@H]3c4ccc(O)cc4CC[C@H]3[C@@H]1C[C@@H](O)[C@@H]2O [Estriol] | 22.3
37 | Cc1noc(NS(=O)(=O)c2ccc(N)cc2)c1C [Sulfisoxazole] | 19.1
38 | CCc1cccc2c3c([nH]c12)C(CC)(CC(=O)O)OCC3 (stereo not given) [Etodolac] | 1.72
39 | CCC[C@H](NC(=O)[C@@H]1[C@H]2CCC[C@H]2CN1C(=O)[C@@H](NC(=O)[C@@H](NC(=O)c1cnccn1)C1CCCCC1)C(C)(C)C)C(=O)C(=O)NC1CC1 [Telaprevir (VX-950)] | 7.98
40 | COc1ccc(-c2cc(=O)c3c(O)cc(O[C@@H]4O[C@H](CO[C@@H]5O[C@@H](C)[C@H](O)[C@@H](O)[C@H]5O)[C@@H](O)[C@H](O)[C@H]4O)cc3o2)cc1O [Diosmin] | 10.3
41 | COc1cc(Nc2ncc(F)c(Nc3ccc4c(n3)N(COP(=O)(O)O)C(=O)C(C)(C)O4)n2)cc(OC)c1OC [Fostamatinib (R788)] | > 100
42 | COc1cc(Nc2ncc(F)c(Nc3ccc4c(n3)N(COP(=O)(O)O)C(=O)C(C)(C)O4)n2)cc(OC)c1OC [R788 (Fostamatinib) Disodium] | > 100
43 | CC1(C)S[C@@H]2[C@H](NC(=O)[C@H](NC(=O)N3CCN(S(C)(=O)=O)C3=O)c3ccccc3)C(=O)N2[C@H]1C(=O)O [Mezlocillin Sodium] | -40
44 | Cn1c(=O)cc(N2CCC[C@@H](N)C2)n(Cc2ccccc2C#N)c1=O [Alogliptin] | 14.2
45 | Cc1nnc(C(C)C)n1C1C[C@H]2CC[C@@H](C1)N2CC[C@H](NC(=O)C1CCC(F)(F)CC1)c1ccccc1 (stereo in doubt) [Maraviroc] | 66.8

Copied from the listing (2 entries):
Row | SMILES | inhibition of TGF-beta1-induced alpha-SMA expression [%]
43 | CC1(C)S[C@@H]2[C@H](NC(=O)[C@H](NC(=O)N3CCN(S(C)(=O)=O)C3=O)c3ccccc3)C(=O)N2[C@H]1C(=O)O [Mezlocillin Sodium] | -40
44 | Cn1c(=O)cc(N2CCC[C@@H](N)C2)n(Cc2ccccc2C#N)c1=O [Alogliptin] | 14.2
